## Percent effect of library compounds

Sequences of proteins named here, by UniProt entry; tags and fusion partners are left off.
UniProt I6X8D2, whole entry: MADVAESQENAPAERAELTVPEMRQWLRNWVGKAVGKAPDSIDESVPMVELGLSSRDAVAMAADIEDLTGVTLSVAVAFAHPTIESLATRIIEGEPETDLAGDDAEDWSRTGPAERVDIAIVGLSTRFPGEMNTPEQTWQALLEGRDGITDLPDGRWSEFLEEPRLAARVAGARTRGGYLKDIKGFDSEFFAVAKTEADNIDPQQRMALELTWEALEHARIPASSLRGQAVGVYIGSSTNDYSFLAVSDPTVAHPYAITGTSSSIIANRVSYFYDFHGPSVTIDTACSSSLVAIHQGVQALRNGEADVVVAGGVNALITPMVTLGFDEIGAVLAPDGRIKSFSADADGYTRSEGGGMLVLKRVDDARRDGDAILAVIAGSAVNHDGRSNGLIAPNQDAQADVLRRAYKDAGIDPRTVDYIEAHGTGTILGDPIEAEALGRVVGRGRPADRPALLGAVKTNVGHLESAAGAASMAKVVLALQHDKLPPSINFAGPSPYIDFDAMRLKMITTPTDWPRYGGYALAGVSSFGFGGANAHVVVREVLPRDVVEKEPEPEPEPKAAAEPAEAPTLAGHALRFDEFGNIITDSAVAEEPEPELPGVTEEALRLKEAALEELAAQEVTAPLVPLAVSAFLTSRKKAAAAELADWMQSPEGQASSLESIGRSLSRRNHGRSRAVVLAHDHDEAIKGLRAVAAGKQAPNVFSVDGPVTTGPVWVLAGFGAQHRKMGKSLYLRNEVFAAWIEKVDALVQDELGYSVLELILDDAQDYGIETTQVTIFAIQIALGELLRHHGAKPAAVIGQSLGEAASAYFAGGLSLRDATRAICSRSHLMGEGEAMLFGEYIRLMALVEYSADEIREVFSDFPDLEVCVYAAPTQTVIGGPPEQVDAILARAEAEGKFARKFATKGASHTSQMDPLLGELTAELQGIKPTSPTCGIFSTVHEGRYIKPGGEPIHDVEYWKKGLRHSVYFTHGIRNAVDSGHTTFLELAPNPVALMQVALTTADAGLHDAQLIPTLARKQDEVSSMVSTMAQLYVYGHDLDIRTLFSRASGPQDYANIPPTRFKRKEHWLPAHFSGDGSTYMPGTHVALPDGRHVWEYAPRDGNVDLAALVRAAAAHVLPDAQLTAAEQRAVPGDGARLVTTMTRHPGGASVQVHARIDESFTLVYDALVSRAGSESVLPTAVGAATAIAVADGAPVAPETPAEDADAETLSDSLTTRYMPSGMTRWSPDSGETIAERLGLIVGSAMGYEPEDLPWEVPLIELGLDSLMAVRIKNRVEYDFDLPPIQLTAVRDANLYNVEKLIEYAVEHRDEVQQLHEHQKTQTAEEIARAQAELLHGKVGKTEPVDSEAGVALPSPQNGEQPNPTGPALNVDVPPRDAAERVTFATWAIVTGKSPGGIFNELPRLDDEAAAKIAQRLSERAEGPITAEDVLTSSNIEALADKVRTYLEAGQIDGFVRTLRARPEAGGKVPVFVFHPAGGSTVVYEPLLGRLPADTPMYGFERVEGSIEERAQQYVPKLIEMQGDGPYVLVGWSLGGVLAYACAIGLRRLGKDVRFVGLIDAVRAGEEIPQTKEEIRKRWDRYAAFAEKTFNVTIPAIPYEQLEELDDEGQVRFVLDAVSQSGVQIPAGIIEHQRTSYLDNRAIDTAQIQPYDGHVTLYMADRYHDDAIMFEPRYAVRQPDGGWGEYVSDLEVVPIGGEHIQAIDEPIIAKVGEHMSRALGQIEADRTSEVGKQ

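Enzyme assay of the thioesterase domain of polyketide synthase 13; the read-out is not stated. Target: Polyketide synthase Pks13, Mycobacterium tuberculosis (UniProt I6X8D2). Compounds at 30 µM. Higher reads as stronger inhibition (inferred from which compounds were picked for retests). Size under these conditions: about 67,000 compounds, about 300 of them at 50% or above in at least one test.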

Each number is a percent effect as filed.
How 0% and 100% were set is not recorded. Most values in the screen are low, and negative values occur.
The compounds are a random part of those screened.

| Compound | Percent Effect |
|---|---|
| `O=C(c1ccnnc1)N1C[C@H](OCC2CCOCC2)[C@H]2OCCC[C@H]21` | 2.022% |
| `CCc1ncnc2c1CCN(C(=O)c1ccccn1)CC2` | 5.958% |
| `CCOC[C@]12COC[C@H]1CN(Cc1cccc(OC)c1)C2` | -2.702% |
| `CC(=O)N(C)Cc1cccc(NC(=O)CCCc2nc(C(C)C)no2)c1` | -17.1% |
| `O=C(NCC1CCC1)c1ccc(-n2ccnc2)nn1` | -14.22% |
| `CCC1c2ccsc2CCN1C(=O)NCc1cccnc1N(C)C` (stereo unspecified) | -57.41% |
| `CCCOc1cc(C)ccc1NC(=O)NCCNC(=O)C(C)C` | -13.32% |
| `CN(C)CCn1c2c(ccc1=O)CC(NC(=O)c1ccsc1)CC2` (stereo unspecified) | -35.73% |
| `Cc1ccccc1OCC(O)C(=O)N1CCC2(CC1)CN(C)C(=O)O2` (stereo unspecified) | 3.538% |
| `CC(C)n1cc(S(=O)(=O)N2CCCCC2)cn1` | -21.17% |
| `CC(=O)N1CCCC1C(=O)NCCOc1cc(C)cc(C)c1` (stereo unspecified) | -8.813% |
| `CCN1C[C@H]2CCN(C(=O)Nc3ccccc3C)CC[C@H]2S1(=O)=O` | -46.25% |
| `Cc1c(NC(C)C(C)C)cccc1C(=O)NCc1ccnn1C` (stereo unspecified) | 5.852% |
| `COc1cccc(CC2(C(=O)O)CCN(c3ccc(Cl)cn3)CC2)c1` | -5.039% |
| `Cc1nn(C)cc1C(C)Nc1ncnc2sccc12` (stereo unspecified) | -13.84% |
| `CNS(=O)(=O)c1cccc(C(C)NCc2ccco2)c1` (stereo unspecified) | -15.57% |
| `COCCn1cc(C(=O)N2CCCC2c2cccc(C)c2)ccc1=O` (stereo unspecified) | -11.76% |
| `Cc1occc1-c1nnc2n1NC(N)=C(C#N)S2` | -10.76% |
| `c1ccc(-c2nnc3sc(CCN4CCCCCC4)nn23)cc1` | -12.35% |
| `CCC(O)CN1CCN(C(=O)c2cccn2Cc2ccncc2)CC1` (stereo unspecified) | -9.39% |
| `COc1ccc2c(c1)OCC(CNC(=O)c1cnc(NC(C)C)nc1)C2` (stereo unspecified) | -12.37% |
| `COc1ccc2c(c1)CC(NC(=O)NCc1cccs1)CO2` (stereo unspecified) | 0.4705% |
| `CC(=O)Nc1ccc(C(=O)N2CCSCC2c2ccc(C)o2)cc1` (stereo unspecified) | -11.55% |
| `COCc1ccccc1C(=O)NCCCN1CCCC1C(=O)N(C)C` (stereo unspecified) | -4.833% |
| `CC1CN(Cc2cnn(C)c2)CCN1c1ccc2nncn2n1` (stereo unspecified) | -5.442% |
| `CN(C)C(=O)c1c[nH]nc1C1CCN(S(=O)(=O)c2ccccc2)CC1` | -6.281% |
| `CN(C)c1cc(C(=O)N2CCCC(n3cccn3)C2)ccn1` (stereo unspecified) | 3.635% |
| `CCOc1ccc(N(CCC#N)C(=O)c2ccc(OC)nc2)cc1` | 2.28% |
| `CCc1ccc(C(=O)Nc2ccc(CC3CC(=O)NC3=O)cc2)s1` (stereo unspecified) | -20.41% |
| `O=C(CCC1CCCN(C(=O)CCc2ccc(F)c(F)c2)C1)NC1CC1` (stereo unspecified) | -19.08% |
| `COc1ccc(C(=O)Nc2nncs2)cn1` | 22.88% |
| `CCn1ccnc1CN(C)c1nc(-c2ccc(Cl)cc2)nc2c1CNC2` | -31.15% |
| `CCc1nnc2n1CCN(C(=O)CN(C)Cc1ccccc1)C2` | -8.317% |
| `Cc1cc(COC(=O)[C@@H]2Cc3ccccc3CN2S(C)(=O)=O)no1` | 3.749% |
| `CCCOc1ccc(C(=O)N2CCN3CCNC(=O)C3C2)cc1Cl` (stereo unspecified) | -38.44% |
| `Cc1cc(CN(C)C(=O)NCC2CCS(=O)(=O)C2)no1` (stereo unspecified) | -14.13% |
| `CC(Oc1ccc(C(=O)NCCNS(C)(=O)=O)cn1)c1ccccc1` (stereo unspecified) | -15.92% |
| `COC(=O)[C@H](C)NC(=O)Cc1c(C)nc2cc(=O)[nH]n2c1C` | -7.028% |
| `O=C(CCNS(=O)(=O)c1ccccc1)NCc1ccoc1` | -15.6% |
| `O=C(c1ccc(-n2cnnc2)nc1)N1CCCC(O)(CO)CC1` (stereo unspecified) | 12.23% |
| `CCC(CC)NC(=O)c1nc2n(n1)-c1ccccc1S(=O)(=O)N2` | -11.33% |
| `CN(C)CCN1CCC(CNCc2c[nH]nc2C(C)(C)C)CC1` | -14.51% |
| `CNc1nc2ncc(Cl)cc2cc1C#N` | -11.37% |
| `O=C(NCC(Cc1cccc(F)c1)N1CCCC1=O)c1ccc[nH]c1=O` (stereo unspecified) | -17.07% |
| `CCN(CC)Cc1cc(=O)n2c(n1)CN(C(=O)c1ccnnc1)CCC2` | 9.976% |
| `CC(C)OC[C@H]1CCC[C@]12CN(S(=O)(=O)c1cccs1)CCO2` | 16.15% |
| `Cc1ccc(C)c(C(=O)NC2CCC(N3C(=O)CCC3=O)CC2)c1` (stereo unspecified) | -0.8058% |
| `Cc1ccc(-c2ncc(C(=O)N3CCCC(CCN)C3)c(O)n2)cc1` (stereo unspecified) | 12.69% |
| `Fc1cccc(-c2nc(CN3CCCC3Cn3cncn3)co2)c1` (stereo unspecified) | -27.78% |
| `Cc1cc(N2CCC(n3cc(CN4CCC[C@@H]4CO)nn3)CC2)ccn1` | 4.038% |
| `CC(=O)N1CCc2nc(-c3ccc(F)cc3)nc(NC(C)C)c2CC1` | -47.44% |
| `CC1=Nc2c(c(=O)[nH]n2C(C)C)C(c2ccc3nccnc3c2)S1` (stereo unspecified) | -45% |
| `O=S1(=O)CCC(n2cc(C3=CCN(CCN4CCCCC4)CC3)cn2)C1` (stereo unspecified) | -36.31% |
| `COC1CCN(C(=O)Cc2csc(-c3ccc(F)cc3)n2)CC1` | -7.578% |
| `Cn1nnnc1SCC(=O)N1CCN(C(=O)C2CC2c2cccs2)CC1` (stereo unspecified) | -21.03% |
| `CCN(Cc1ccccc1)Cc1nc2c(cnn2C)c(=O)[nH]1` | -9.463% |
| `Cn1cc(CN2CC[C@H]3C[C@@H](c4nc(C5CC5)cs4)O[C@@H]3C2)cn1` | -17.68% |
| `CN(Cc1ccco1)C1CCC12CCN(C(=O)N1CCCC1)CC2` (stereo unspecified) | -25.41% |
| `Cc1cnn(CCC(=O)N2CCN(C(=O)C3CC3)[C@@H]3CS(=O)(=O)C[C@@H]32)c1` | -16.98% |
| `O=C(NCC1COCc2c(-c3ccncc3)nnn2C1)[C@H]1CCCO1` (stereo partly specified) | -22.39% |

Some entries from above, unchanged:

With CCC(CC)NC(=O)c1nc2n(n1)-c1ccccc1S(=O)(=O)N2 the screen gave -11.33%.
With CN(C)C(=O)c1c[nH]nc1C1CCN(S(=O)(=O)c2ccccc2)CC1 the screen gave -6.281%.
With CCN(CC)Cc1cc(=O)n2c(n1)CN(C(=O)c1ccnnc1)CCC2 the screen gave 9.976%.
With CCN(Cc1ccccc1)Cc1nc2c(cnn2C)c(=O)[nH]1 the screen gave -9.463%.
With COCc1ccccc1C(=O)NCCCN1CCCC1C(=O)N(C)C (stereo unspecified) the screen gave -4.833%.

The values are deposited in ChEMBL (CHEMBL3988442, “University of Dundee, Small-Polar-MMV Screening Library” (2021)).